Measured values from the supplement of paper PMC10849652.
The other results are listed elsewhere or left out.

Amino acid sequences for entries named in this document (tags omitted). A change or cut given only in a name is not applied to a line headed by its entry.
UniProt Q9H0S4: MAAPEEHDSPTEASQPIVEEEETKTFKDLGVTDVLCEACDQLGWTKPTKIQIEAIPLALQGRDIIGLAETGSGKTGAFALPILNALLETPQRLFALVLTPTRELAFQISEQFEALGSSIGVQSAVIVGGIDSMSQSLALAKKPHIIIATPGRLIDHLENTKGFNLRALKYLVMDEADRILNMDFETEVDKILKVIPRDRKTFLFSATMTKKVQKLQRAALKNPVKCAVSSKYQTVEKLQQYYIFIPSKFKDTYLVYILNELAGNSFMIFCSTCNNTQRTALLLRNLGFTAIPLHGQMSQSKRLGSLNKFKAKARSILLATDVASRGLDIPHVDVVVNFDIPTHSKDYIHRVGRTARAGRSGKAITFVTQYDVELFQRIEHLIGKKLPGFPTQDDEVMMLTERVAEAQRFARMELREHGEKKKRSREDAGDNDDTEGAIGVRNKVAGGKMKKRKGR
UniProt Q96GQ7: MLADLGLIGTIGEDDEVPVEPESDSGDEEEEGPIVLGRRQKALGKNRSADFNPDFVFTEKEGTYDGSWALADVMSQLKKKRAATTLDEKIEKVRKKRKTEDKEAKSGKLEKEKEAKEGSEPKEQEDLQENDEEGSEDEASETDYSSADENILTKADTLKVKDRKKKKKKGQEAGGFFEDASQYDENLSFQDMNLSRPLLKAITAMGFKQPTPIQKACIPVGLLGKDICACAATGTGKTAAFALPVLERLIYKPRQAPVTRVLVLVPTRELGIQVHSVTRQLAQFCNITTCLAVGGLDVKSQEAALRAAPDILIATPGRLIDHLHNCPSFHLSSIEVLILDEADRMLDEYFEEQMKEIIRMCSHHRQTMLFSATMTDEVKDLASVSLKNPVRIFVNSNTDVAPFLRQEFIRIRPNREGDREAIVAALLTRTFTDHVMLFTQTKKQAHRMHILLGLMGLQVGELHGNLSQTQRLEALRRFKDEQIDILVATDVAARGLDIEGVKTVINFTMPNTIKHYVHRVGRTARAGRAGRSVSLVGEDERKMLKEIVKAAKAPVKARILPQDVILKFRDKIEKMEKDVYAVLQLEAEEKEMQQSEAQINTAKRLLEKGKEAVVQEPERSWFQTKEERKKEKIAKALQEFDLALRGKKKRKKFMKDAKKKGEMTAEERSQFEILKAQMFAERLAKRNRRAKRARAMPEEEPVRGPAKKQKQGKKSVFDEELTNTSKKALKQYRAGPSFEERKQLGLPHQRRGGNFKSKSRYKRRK
UniProt Q8TF46, whole entry, looked up: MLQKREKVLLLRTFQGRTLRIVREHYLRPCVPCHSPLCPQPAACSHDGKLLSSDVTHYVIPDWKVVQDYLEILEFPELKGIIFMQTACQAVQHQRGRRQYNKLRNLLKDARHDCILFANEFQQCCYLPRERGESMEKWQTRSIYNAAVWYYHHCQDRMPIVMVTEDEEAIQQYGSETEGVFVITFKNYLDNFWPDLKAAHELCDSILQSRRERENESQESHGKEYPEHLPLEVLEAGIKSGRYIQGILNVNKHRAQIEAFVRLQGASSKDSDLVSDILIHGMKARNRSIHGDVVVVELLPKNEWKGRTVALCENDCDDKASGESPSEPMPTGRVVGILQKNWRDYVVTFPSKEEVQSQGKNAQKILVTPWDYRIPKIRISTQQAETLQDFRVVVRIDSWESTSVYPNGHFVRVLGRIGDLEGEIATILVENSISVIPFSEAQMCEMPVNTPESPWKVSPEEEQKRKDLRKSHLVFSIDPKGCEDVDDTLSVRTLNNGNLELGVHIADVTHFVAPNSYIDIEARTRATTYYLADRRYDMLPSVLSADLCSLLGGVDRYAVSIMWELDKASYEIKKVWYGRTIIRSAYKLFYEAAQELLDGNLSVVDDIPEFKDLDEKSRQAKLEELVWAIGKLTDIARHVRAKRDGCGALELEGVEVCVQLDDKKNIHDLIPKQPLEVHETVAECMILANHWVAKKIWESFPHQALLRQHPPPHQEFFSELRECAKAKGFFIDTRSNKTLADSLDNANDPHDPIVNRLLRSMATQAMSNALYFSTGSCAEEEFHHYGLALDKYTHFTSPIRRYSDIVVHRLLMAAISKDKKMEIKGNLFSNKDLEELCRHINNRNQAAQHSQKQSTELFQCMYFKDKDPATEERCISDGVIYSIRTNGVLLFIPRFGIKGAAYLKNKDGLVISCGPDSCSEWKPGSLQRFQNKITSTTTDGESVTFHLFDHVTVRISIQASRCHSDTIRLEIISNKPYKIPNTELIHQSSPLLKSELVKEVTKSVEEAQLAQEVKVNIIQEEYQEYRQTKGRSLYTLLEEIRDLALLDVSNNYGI

Columns and labels:
Assay in all cases: log2 fold change, soluble protein after heating vs DMSO (PISA); higher = thermal stabilisation; K562 cells, 10 uM, 30 min; active = over 0.2 and 3.5 SD of the protein, either way, in both replicates (recomputed)
[1] = compound: C1=CC=C(C=C1)[C@H](COC2=CC3=C(C=C2)NC(=O)N3)NC(=O)C4=CC=CN(C4=O)CC5=CC(=C(C=C5)F)F
Method in brief: (§1)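 Aliquots of K562 cells (2×10^6 cells/mL) treated with 10 μM compound for 30 min were heated for 3 min over 48°C-58°C. After pooling and extraction in PBS with 0.5% NP-40 at 4°C, soluble protein from a 21,000xg, 90 min spin was quantified by TMTpro 16plex LC-MS/MS with channel sums equalised. Thermal stability is expressed against control samples, from duplicates, as a log2 fold change.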

[2] = compound: CC1=C(SC2=C1C(=N[C@H](C3=NN=C(N32)C)CC(=O)N)C4=CC=C(C=C4)Cl)C
Method in brief: as §1

[3] = compound: CC1=C2C(=CC=C1)N=C(N(C2=O)C3=CC=CC=C3C)CN4C=NC5=C(N=CN=C54)N
Method in brief: as §1

[4] = compound: c1ccc([C@@H]2C[C@H]2NC2CCNCC2)cc1
Method in brief: as §1

[5] = compound: Cc1sc2c(c1C)C(c1ccc(Cl)cc1)=N[C@@H](CC(=O)OC(C)(C)C)c1nnc(C)n1-2
Method in brief: as §1

Measured: log2 fold change

DDX47 (UniProt Q9H0S4)
inactive: [1] -0.008 | [2] -0.281 | [3] -0.229 | [4] 0.093

DDX27 (UniProt Q96GQ7)
inactive: [2] -0.197 | [3] -0.157 | [5] 0.12 | [4] -0.046

DIS3L (UniProt Q8TF46)
inactive: [2] -0.427 | [3] -0.019 | [5] 0.097 | [4] 0.107
